The record followed here is paper PMC11994786.

Protein sequences, listed by entry. Tags and fused reporters are not part of them. Lines headed by an entry give the natural chain unless they say otherwise; changes in a name come on top.
UniProt P69566: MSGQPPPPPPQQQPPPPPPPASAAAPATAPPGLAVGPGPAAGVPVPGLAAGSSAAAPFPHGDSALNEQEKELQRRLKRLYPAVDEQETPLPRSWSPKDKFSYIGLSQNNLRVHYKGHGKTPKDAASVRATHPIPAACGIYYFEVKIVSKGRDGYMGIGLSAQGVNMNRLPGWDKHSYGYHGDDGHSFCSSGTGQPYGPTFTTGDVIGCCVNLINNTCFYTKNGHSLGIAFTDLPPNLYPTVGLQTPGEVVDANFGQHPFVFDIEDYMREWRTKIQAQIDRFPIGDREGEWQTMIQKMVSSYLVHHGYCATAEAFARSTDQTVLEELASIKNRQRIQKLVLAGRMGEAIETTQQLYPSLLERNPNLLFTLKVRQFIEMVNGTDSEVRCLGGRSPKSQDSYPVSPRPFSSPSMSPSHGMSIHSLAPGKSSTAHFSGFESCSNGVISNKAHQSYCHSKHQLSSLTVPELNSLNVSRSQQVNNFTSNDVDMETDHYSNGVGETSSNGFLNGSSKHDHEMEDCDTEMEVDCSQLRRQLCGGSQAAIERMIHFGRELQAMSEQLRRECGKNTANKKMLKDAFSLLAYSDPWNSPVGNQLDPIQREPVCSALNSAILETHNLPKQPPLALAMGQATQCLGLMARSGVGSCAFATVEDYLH
UniProt Q9JIY5: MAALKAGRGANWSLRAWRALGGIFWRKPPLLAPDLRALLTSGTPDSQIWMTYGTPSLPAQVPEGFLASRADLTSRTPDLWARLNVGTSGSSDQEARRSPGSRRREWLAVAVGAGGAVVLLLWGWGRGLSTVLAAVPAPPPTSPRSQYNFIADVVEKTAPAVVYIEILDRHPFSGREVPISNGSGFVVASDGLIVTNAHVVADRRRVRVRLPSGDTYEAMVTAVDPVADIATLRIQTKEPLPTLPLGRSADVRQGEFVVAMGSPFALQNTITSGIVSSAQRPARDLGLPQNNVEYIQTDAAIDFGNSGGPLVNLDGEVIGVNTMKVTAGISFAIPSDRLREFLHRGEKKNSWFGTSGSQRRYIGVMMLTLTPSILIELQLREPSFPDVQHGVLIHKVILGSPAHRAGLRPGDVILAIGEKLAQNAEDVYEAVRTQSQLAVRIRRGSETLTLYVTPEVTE

These are yes or no findings as the source states them, for the method shown. Binding seen in cells or lysates may run through a third protein. Binding calls can cover weak binding; strength is not graded here.

The experiment has as its target RanBP9-TT (endogenous RanBP9 with a double tag made of HA and V5) (mouse) (UniProt P69566). The experiment is described as follows: co-IP; anti-V5 magnetic beads on lysates of RanBP9-TT MEFs grown with 10% serum or deprived of serum for 4 h; IgG beads as control; Western blot.

“High temperature requirement protein 2 (HtrA2) (from UniProt Q9JIY5)”: the binding result is “binds”.
